According to patent US20210206850A1 (ACCURUS BIOSCIENCES, published 2021):
Substitutions are numbered along the chain they refer to. These are yes or no findings as the source states them, for the method shown. Some binding calls cover weakened binding; strength is not graded here.

B1: D28S1 mouse anti-human CD47 hybridoma antibody (antibody, V domains shown)
VH: EVQLVESGGDLVKPGGSLKLSCAASGFTFTSYGMSWVRQTPDKRLEWVATINTGGSYTYYPDSVKGRFTISRDNAKNTLYLQMSSLKSEDTAMYYCARHTIKSLMDYWGQGTSVTVSS
VL: ETTVTQSPASLSMAIGEKVTIRCITSTDIDDDMNWYQQKPGEPPKLLISEGNTLRPGVPSRFSSSGYGTDFVFIIENMFSEDVADYYCLQSDNLPYTFGSGTKLEIK
notes: Mouse hybridoma IgG
B2: D8S1 (antibody, V domains shown)
VH: EVQLQQSVAELVRPGASVKLSCTVSGFNIKNTYIYWVKQRPEQGLEWIGRIDPANGNTKDAPKFQGKATMTADTSSNTAYLQLSSLTSEDTAIYYCARGYGSGFAYWGQGTLVTVSA
VL: DIQMTQTTSSLSASLGDRVTISCRASQDISNHLNWYQQKPDGIVKLLIYYTSRLHSGVPSRFSGSGSGTDYSLTISNLEQEDIATYFCQQGSTLPFTFGSGTKLEIK
notes: Mouse hybridoma form; the mouse/human chimeric form with the same V regions is m13; also called D8S1 mouse anti-human CD47 hybridoma antibody
B3: D96S1 mouse anti-human CD47 hybridoma antibody (antibody, V domains shown)
VH: EVQLQQSGAELVKPGASVKLSCTASGFNIKDTYIHWVKQRPEQGLEWIGRIDPANGNIKSDPKFQGKATVTADTSSNTAYLQLSSLTSEDTAVYYCARSYGSSFASWGQGTLVTVSP
VL: B2 VL with I43A, L94F, F96Y, S100G
notes: Mouse hybridoma IgG
B4: D41S2 (antibody, V domains shown)
VH: B2 VH with V24P, K38R
VL: B2 VL with I43T
notes: Mouse hybridoma form; the mouse/human chimeric form with the same V regions is m16; also called D41S2 mouse anti-human CD47 hybridoma antibody
B5: D36S4 mouse anti-human CD47 hybridoma antibody (antibody, V domains shown)
VH: EVKLEESGGGLVQPGGSMKLSCVASGFTFSRYWMNWVRQSPDKGLEWVAQIRLKSDNYETHYAESVKGRFTISRDDSKSSVYLQMNNLRAEDTGIYYCIEEGGYYVPFAYWGQGTLVTVSA
VL: DIVVSQSPSSLAVSAGEKVTMSCKSSQSLFKSRTRKNYLAWYQQRPGQSPKLLIYWASIRESGVPDRFTGSGSGTEFTLTISSVQAEDLAVYYCKQSYYLLTFGAGTKLELK
notes: Mouse hybridoma IgG
B6: D125S3 (antibody, V domains shown)
VH: EVQLVESGGDLVKPGGSLNLSCAASGFTFSDYGMSWVRQTPDMRLEWVATISKYGTYTSYPDSVKGRFTISRSNAKNTLYLQMSSLKSADTALYYCARRFFGNYNYWYFDVWGAGTTVTVSS
VL: DIVLTQSPASLAVSLGQRATFSCRASESVDEFGISYIHWYKKSPGQPPKLLIYRASTLESGISARFSGSGSGTDFTLTINPVETDDVATYYCQQSNQDPLTFGAGTKLELK
notes: Mouse hybridoma form; the mouse/human chimeric form with the same V regions is m18; also called D125S3 mouse anti-human CD47 hybridoma antibody

Molecular target: His tagged cynomolgus monkey CD47 (cynomolgus monkey)
Assay: ELISA, plate coated with His tagged cynomolgus monkey CD47 at 2 ug/ml, goat anti-mouse IgG-HRP, OD450

Row | binding | Binder
1 | binds | B1
2 | binds | B2
3 | binds | B3
4 | binds | B4
5 | binds | B5
6 | binds | B6
